Results are given in words; binding and its absence hold for the method and conditions named. In cells and extracts the contact can be indirect. Binding calls can cover weak binding; strength is not graded here.
Molecular target: soluble myc-tagged NP-1 (extracellular domain of NP-1 with a C-terminal myc tag) (Mus musculus (Mouse))
Assay: pull-down of growth factor with NP-1-myc and anti-myc antibody (FIG. 13b)

- binding: binds
B1: mouse VEGF-B167 (ligand, UniProt P49766-2 22-188, looked up)
chain: PVSQFDGPSHQKKVVPWIDVYARATCQPREVVVPLSMELMGNVVKQLVPSCVTVQRCGGCCPDDGLECVPTGQHQVRMQILMIQYPSSQLGEMSLEEHSQCECRPKKKESAVKPDSPRILCPPCTQRRQRPDPRTCRCRCRRRRFLHCQGRGLELNPDTCRCRKPRK
notes: 35S metabolically labelled, from conditioned medium of transfected cells; also called mVEGF-B167
